Data as given in PubChem BioAssay AID1259308 (NCATS, 2017)
The deposit covers about 59,000 reagents; below is a random part of them. About 1,510 of them (2.6%) were called active. 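Calls use total luciferase alone and ignore viability, so some active siRNAs may act by altering cell number.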 A number with no mark means an inactive call. The numbers tell different reagents against one gene apart. Not all columns of the deposit are shown.

- Assay: 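Knock-downs that increase output of a recombinant reporter protein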 (primary screen)
- System: human HEK293 embryonic kidney cells stably expressing firefly luciferase (HEK-CMV-Luc2-Hygro)
- Knock-down reagent: single siRNA against human genes, 0.8 pmol siRNA per well
- Timing: 72 h
- Detection: 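Luciferase light (ONE-Glo) measured on one replicate plate set and viability (CellTiter-Glo) on the other, scaled to a negative control siRNA, with robust z-scores and luciferase per cell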
- Direction: total luciferase, z-score: higher = more reporter protein produced
- Rule for the call: 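An siRNA counts as active if its total luciferase robust z-score exceeds 3; genes with two or more such siRNAs out of three were retested with fresh siRNAs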
- Meaning of the calls: active = raised luciferase; inactive = no rise

total luciferase, z-score, by target and reagent
PDE1B (GeneID 5153): #1 0.0413; #2 -2.29; #3 -0.245
SEZ6L2 (GeneID 26470): #1 -0.73; #2 0.154; #3 -0.255
ISL1-DT (GeneID 642366): #1 0.79; #2 -0.265; #3 0.0566
PRR15L (GeneID 79170): #1 1.08; #2 -0.137; #3 -0.401

4 entries from above, arranged by “total luciferase, z-score”, high to low.
target	reagent	total luciferase, z-score
ISL1-DT (GeneID 642366)	1	0.79
ISL1-DT (GeneID 642366)	3	0.0566
SEZ6L2 (GeneID 26470)	3	-0.255
ISL1-DT (GeneID 642366)	2	-0.265

Next reagents follow:
total luciferase, z-score, by target and reagent
FBXO2 (GeneID 26232): #1 0.279; #2 0.85; #3 0.296
RAB30 (GeneID 27314): #1 -0.857; #2 0.811; #3 -1.23
TCEAL4 (GeneID 79921): #1 1.13; #2 1.27; #3 1.57
AP1S1 (GeneID 1174): #1 -1.2; #2 0.905; #3 -1.9
